Laboratory results: PubChem BioAssay AID1259425 (University of Nebraska Medical Center, 2018)
In all, the deposit lists about 14,000 reagents; shown is a part drawn at random. Some reagents were tested in more than one well and are listed for each. The record does not give: the time to read-out.

Screen: 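Compare each knockdown with KSR1 silencing using changes in marker transcripts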 (primary screen)
System: HCT116 human colon cancer cells
Reagents: siRNA pool against human genes, 50 nM siRNA
Measurement: 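mRNA of six signature genes measured together by branched-DNA assay after 50 nM siRNA pool, blank removed, divided by geometric mean of two housekeeping genes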
Reading the numbers: BNIP3L mRNA: higher = more BNIP3L transcript after knockdown; NDRG1 mRNA: higher = more NDRG1 transcript after knockdown; BNIP3 mRNA: higher = more BNIP3 transcript after knockdown; ALDOC mRNA: higher = more ALDOC transcript after knockdown; ACSL5 mRNA: higher = more ACSL5 transcript after knockdown

gene	BNIP3L mRNA, set 1	NDRG1 mRNA, set 1	BNIP3 mRNA, set 1	ALDOC mRNA, set 1	ACSL5 mRNA, set 1
PPA1	0.0882	0.266	0.221	0.0367	0.203
KREMEN2	0.067	0.369	0.318	0.0232	0.0993
TOP1	0.0878	0.0829	0.21	0.0106	0.073
KIF26A	0.0999	0.19	0.167	0.0294	0.307
HACD2	0.0955	0.513	0.271	0.0339	0.251
YWHAZ	0.0892	0.114	0.237	0.00421	0.148
TRIO	0.109	0.133	0.419	0.00842	0.306
ZNF268	0.0645	0.0596	0.242	0.0509	0.0789
TLN2	0.1	0.173	0.38	0.00958	0.205
SLC39A1	0.182	0.351	0.408	0.00886	0.158
ADAMTS14	0.0932	0.16	0.58	-0.00336	0.258
PKP1	0.148	0.287	0.263	0.00527	0.208
SLC7A8	0.142	0.17	0.335	0.0143	0.0546
RELT	0.106	0.112	0.399	0.0331	0.133
ZNF222	0.0922	0.121	0.109	0.0246	0.123
KRT36	0.121	0.201	0.278	0.0209	0.174
ADAMTS2	0.193	0.631	0.695	-0.0151	0.779
PSPHP1	0.0946	0.198	0.267	0.03	0.182
GAGE2C	0.146	0.405	0.278	0.023	0.234
ATP6V1G1	0.347	1.17	0.751	0.341	0.189

Single entries from above:
Entry for ADAMTS2 in “ACSL5 mRNA, set 1”: 0.779
TOP1, BNIP3 mRNA, set 1 → 0.21
Value of TLN2 under “BNIP3L mRNA, set 1”: 0.1
TRIO, NDRG1 mRNA, set 1: 0.133

The list goes on.
gene	BNIP3L mRNA, set 1	NDRG1 mRNA, set 1	BNIP3 mRNA, set 1	ALDOC mRNA, set 1	ACSL5 mRNA, set 1
IGFBP2	0.0781	0.226	0.273	0.0107	0.143
ICMT	0.0935	0.34	0.304	0.016	0.176
PDK4	0.11	0.128	0.406	0.0127	0.133
CD8B	0.0778	0.0812	0.287	0.0333	0.162
NINJ2	0.101	0.282	0.262	0.0843	0.37
LRRC49	0.114	0.227	0.43	0.0317	0.166
NCAN	0.111	0.386	0.206	0.0577	0.0207
ZBTB21	0.0754	0.234	0.31	0.0105	0.207
CLDN15	0.0813	0.294	0.597	0.0484	0.264
FRK	0.381	0.157	0.902	0.057	0.319
GRK5	0.112	0.0773	0.285	0.00478	0.279
GRK5	0.144	0.16	0.314	0.0186	0.205
ZBTB17	0.216	0.238	0.269	0.00931	0.201
GPR137	0.198	0.175	0.337	0.0704	0.266
PLEKHG1	0.209	0.964	0.446	0.1	0.483
NEK6	0.218	0.125	0.185	0.00338	0.16
UBIAD1	0.117	0.537	0.337	0.024	0.174
IGLL1	0.0595	0.467	0.311	0.0415	0.26
PRKAG1	0.16	0.0593	0.307	0.00534	0.133
RYBP	0.0988	0.211	0.374	0.0267	0.175
LRTM1	0.63	1.16	1.59	0.25	0.373
ABCC8	0.207	0.218	0.427	0.0266	0.282
GCNT1	0.105	0.434	0.4	0.121	0.308
DXO	0.116	0.0497	0.268	0.00857	0.0627
MTA2	0.111	0.0566	0.4	0.018	0.154
CPLANE2	0.0603	0.232	0.435	0.0405	0.218
PDE9A	0.0897	0.123	0.225	0.0204	0.131
PRSS12	0.135	0.255	0.308	0.0353	0.158
JCAD	0.0466	0.0919	0.22	0.00803	0.106
RBMS3	0.0948	0.0889	0.329	0.0176	0.163
